Measured values as given in US20240309360A1, “TRANS-ACTIVATORS AND METHODS AND USE THEREOF” (THE GOVERNING COUNCIL OF THE UNIVERSITY OF TORONTO, priority 2021, published 2024).
Results are given in words; binding and its absence hold for the method and conditions named. Binding seen in cells or lysates may run through a third protein. A yes stands for co-enrichment or nearness to the bait. Other partners may have been found. Tags and fused reporters may be left off the sequences shown.

Protein sequences, listed by entry. Tags and fused reporters are not part of them. Residues count along the entry.
UniProt Q92793, residues 2-2442: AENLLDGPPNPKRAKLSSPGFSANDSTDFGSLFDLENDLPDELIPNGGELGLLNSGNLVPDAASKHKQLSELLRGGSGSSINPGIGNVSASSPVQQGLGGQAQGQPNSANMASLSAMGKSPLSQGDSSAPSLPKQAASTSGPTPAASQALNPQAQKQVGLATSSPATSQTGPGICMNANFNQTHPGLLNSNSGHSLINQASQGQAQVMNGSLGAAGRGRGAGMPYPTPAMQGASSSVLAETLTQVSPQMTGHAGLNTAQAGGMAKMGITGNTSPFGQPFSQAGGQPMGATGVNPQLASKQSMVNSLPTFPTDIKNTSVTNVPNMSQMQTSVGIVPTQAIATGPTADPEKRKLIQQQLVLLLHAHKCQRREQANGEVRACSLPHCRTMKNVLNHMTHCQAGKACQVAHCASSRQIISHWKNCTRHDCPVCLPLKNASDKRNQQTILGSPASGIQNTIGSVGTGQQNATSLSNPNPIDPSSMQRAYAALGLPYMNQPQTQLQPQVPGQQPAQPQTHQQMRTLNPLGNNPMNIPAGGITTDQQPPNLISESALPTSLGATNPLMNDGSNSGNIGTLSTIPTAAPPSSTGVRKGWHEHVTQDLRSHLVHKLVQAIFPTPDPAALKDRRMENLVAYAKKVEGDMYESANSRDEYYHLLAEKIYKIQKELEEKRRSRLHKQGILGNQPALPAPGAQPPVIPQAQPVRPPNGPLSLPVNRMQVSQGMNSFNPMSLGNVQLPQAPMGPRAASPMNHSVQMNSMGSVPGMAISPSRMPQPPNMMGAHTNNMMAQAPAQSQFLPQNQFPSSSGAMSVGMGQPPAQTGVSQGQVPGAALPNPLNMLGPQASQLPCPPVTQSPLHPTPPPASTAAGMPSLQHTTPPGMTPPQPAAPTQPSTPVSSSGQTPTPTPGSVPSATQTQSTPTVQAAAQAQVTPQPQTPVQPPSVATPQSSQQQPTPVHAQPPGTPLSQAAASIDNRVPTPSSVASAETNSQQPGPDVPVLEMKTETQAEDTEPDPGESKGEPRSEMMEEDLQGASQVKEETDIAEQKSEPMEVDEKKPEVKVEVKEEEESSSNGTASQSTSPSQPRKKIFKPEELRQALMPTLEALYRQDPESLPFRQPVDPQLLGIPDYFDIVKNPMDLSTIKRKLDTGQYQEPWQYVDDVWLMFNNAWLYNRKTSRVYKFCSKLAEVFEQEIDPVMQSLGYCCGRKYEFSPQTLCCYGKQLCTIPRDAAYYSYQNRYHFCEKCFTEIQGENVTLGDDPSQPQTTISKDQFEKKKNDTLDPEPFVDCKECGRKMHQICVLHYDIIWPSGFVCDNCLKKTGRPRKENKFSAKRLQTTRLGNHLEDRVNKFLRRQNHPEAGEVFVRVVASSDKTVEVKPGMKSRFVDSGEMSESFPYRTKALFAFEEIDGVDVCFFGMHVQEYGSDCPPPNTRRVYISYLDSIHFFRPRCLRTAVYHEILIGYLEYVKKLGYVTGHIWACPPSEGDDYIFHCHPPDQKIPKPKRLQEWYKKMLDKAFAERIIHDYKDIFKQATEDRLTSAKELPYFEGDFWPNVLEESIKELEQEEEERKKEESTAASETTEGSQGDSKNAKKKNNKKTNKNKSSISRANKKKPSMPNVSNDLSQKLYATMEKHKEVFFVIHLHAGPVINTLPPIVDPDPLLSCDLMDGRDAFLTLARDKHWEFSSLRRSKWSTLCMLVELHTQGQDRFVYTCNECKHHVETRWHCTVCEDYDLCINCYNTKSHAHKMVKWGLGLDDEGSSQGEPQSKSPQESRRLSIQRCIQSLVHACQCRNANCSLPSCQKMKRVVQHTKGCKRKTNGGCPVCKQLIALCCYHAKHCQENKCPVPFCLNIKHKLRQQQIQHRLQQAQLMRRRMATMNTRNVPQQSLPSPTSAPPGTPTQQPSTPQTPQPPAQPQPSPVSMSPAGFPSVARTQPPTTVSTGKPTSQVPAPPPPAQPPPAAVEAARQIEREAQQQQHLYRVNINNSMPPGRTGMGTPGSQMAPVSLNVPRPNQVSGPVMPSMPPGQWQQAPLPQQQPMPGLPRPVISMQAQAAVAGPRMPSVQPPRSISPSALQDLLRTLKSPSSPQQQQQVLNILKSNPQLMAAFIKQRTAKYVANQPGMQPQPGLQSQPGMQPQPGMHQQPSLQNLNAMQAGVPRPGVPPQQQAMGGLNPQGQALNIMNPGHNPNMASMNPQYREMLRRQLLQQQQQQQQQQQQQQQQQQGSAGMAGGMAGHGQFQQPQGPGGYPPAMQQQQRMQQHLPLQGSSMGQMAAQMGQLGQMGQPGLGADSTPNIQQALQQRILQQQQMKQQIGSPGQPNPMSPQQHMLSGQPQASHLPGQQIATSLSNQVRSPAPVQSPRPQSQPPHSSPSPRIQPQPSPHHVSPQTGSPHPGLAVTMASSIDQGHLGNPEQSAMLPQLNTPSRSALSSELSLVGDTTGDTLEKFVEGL
UniProt Q09472, residues 2-2414: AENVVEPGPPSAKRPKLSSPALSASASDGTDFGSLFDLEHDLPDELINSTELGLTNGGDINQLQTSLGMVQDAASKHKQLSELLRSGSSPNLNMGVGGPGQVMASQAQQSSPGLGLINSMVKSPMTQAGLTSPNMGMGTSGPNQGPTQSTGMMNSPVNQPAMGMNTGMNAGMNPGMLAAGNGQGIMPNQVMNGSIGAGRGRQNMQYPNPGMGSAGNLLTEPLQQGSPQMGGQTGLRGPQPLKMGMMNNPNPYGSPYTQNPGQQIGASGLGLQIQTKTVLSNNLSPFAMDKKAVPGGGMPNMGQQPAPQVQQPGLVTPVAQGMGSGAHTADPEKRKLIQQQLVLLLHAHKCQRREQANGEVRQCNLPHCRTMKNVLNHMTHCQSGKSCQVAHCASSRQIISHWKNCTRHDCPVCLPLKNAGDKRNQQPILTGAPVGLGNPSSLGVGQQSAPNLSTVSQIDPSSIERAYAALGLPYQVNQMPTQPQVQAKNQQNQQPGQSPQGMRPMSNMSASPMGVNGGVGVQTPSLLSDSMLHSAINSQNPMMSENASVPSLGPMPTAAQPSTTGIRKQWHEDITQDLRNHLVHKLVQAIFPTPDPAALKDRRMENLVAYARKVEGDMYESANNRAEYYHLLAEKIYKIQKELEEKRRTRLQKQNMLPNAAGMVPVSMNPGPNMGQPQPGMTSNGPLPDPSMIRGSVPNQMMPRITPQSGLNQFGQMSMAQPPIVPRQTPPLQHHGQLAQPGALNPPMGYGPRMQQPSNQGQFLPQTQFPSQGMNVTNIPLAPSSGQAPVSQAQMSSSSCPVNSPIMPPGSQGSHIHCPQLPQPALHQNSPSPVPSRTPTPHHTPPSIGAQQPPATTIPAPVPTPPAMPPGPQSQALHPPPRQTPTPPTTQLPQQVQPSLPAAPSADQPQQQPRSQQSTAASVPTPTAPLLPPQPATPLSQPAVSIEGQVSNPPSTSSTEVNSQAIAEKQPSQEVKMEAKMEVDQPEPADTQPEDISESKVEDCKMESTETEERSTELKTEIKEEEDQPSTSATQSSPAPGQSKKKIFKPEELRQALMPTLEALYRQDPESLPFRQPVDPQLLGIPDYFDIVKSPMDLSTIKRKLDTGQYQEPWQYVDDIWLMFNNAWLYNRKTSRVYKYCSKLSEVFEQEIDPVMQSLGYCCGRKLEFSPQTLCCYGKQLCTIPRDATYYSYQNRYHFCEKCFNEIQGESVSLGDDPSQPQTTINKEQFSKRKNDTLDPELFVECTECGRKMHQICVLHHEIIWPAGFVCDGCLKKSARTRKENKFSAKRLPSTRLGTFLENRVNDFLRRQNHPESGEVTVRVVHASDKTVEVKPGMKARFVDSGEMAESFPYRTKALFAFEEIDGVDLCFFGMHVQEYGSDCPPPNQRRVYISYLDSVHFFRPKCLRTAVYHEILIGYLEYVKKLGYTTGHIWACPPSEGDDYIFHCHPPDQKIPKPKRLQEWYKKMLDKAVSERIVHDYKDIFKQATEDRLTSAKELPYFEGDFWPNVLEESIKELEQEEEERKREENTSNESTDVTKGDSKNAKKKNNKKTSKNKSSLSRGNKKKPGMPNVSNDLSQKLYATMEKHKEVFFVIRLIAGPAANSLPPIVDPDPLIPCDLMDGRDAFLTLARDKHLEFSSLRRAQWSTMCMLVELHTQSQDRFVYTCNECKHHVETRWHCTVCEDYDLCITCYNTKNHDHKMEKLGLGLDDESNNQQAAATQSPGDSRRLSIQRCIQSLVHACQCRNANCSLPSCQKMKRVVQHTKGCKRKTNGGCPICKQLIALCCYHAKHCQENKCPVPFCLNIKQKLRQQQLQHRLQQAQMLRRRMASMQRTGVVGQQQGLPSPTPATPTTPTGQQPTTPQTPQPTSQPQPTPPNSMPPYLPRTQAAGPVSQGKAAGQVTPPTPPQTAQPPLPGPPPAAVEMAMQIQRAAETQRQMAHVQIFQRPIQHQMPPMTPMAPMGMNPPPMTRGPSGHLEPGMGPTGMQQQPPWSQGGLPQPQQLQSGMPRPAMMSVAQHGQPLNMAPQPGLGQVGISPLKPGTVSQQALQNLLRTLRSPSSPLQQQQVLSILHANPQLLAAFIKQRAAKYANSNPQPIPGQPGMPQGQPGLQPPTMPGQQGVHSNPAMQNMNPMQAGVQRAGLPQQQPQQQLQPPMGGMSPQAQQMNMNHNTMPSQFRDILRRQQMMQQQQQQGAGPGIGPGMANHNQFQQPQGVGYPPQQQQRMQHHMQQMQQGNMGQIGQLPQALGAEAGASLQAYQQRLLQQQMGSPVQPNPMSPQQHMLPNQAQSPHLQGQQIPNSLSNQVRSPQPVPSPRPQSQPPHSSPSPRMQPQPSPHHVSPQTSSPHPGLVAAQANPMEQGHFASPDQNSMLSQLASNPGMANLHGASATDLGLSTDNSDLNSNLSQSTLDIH

Legend:
[1] = substrate: CBP (human) (UniProt Q92793); experiment: BioID2 proximity labelling, HEK293 cells
[2] = target: p300 (human) (UniProt Q09472); experiment: BioID2 proximity labelling, HEK293 cells
[3] = substrate: CBP (human) (UniProt Q92793); experiment: BioID proximity labelling (FIG. 5D)
[4] = target: p300 (human) (UniProt Q09472); experiment: BioID proximity labelling (FIG. 5D)

Measured: binding

B1: SRF-C3orf62 fusion tagged with BirA-FLAG (protein, human;Aquifex aeolicus, UniProt P11831 1-338, looked up, not shown: small tags and cut ends)
chain: MLPTQAGAAAALGRGSALGGSLNRTPTGRPGGGGGTRGANGGRVPGNGAGLGPGRLEREAAAAAATTPAPTAGALYSGSEGDSESGEEEELGAERRGLKRSLSEMEIGMVVGGPEASAAATGGYGPVSGAVSGAKPGKKTRGRVKIKMEFIDNKLRRYTTFSKRKTGIMKKAYELSTLTGTQVLLLVASETGHVYTFATRKLQPMITSETGKALIQTCLNSPDSPPRSDPTTDQRMSATGFEETDLTYQVSESDSSGETKDTLKPAFTVTNLPGTTSTIQTAPSTSTTMQVSSGPSFPITNYLAPVSASVSPSAVSSANGTVLKSTGSGPVSSGGLMQAAVPCAPENENPAFATNHAPVNAKPHALCPERKPLTSKENVLMHSSILAPERESWRTAGEGENWRKENLRKDMERDLKADSNMPLNNSSQEVTKDLLDMIDHTSIRTIEELAGKIEFENELNHMCGHCQDSPFKEEAWALLMDKSPQKATDADPGSLKQAFDDHNIVETVLDLEEDYNVMTSFKYQIE
binds: [1] | [2] | [3] | [4]
